Laboratory results as given in article PMC10864483 (Frontiers in Microbiology, 2024).

Assay: general procedure: Fmoc solid-phase peptide synthesis; Fmoc-Asp(Wang resin LL)-ODmab; HATU/HOAt/collidine (1:1:2); on-resin cyclization with DIC/HOAt, then PyBOP/HOAt
Conditions: whole synthesis, resin loading and HPLC peak areas

## cyc(Asp-(Orn(Ac,OH))3-Gly-Lys(N3))
  isolated yield: 3%
